Results: article doi:10.1101/2023.08.23.554462
These are yes or no findings as the source states them, for the method shown. Binding seen in cells or lysates may run through a third protein. Some binding calls cover weakened binding; strength is not graded here. Tags and fused reporters may be left off the sequences shown.

Amino acid sequences for entries named in this document (tags omitted).
UniProt Q9UNE7: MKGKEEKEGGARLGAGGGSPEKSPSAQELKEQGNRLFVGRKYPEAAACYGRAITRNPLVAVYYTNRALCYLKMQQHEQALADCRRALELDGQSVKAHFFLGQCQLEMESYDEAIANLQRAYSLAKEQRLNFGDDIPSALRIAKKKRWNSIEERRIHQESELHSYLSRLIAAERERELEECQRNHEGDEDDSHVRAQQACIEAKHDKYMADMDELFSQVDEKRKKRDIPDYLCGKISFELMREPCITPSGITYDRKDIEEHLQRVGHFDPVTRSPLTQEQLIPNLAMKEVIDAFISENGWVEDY

What was measured:
Flag-YTHDF1 (human) = target: T1, Flag-YTHDF1 (human) (UniProt Q9BYJ9); assay: co-IP
T1 sequence: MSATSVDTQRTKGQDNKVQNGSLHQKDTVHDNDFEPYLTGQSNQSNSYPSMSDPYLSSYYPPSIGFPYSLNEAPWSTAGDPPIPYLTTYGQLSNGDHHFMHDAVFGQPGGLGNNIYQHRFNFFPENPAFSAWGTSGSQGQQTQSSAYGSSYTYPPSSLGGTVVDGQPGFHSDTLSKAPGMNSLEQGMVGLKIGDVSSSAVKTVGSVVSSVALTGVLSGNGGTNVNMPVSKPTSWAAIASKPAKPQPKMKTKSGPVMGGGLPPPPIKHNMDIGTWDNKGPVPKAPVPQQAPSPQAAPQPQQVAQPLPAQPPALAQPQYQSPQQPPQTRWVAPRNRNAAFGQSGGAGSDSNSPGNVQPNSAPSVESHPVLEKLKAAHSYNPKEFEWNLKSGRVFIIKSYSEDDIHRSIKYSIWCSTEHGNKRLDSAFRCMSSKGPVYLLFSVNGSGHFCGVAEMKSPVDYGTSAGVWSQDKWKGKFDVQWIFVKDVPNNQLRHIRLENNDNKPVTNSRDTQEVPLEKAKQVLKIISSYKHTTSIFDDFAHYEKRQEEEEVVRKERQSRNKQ

[1] = target: T2, Flag-YTHDF1 YTH domain (human) (UniProt Q9BYJ9); assay: co-IP
T2 sequence: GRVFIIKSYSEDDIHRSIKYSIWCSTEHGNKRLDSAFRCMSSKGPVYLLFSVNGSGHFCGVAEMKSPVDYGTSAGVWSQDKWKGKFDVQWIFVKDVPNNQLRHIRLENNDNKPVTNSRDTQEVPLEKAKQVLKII

Flag-YTHDF2 (human) = target: T3, Flag-YTHDF2 (human) (UniProt Q9Y5A9); assay: co-IP
T3 sequence: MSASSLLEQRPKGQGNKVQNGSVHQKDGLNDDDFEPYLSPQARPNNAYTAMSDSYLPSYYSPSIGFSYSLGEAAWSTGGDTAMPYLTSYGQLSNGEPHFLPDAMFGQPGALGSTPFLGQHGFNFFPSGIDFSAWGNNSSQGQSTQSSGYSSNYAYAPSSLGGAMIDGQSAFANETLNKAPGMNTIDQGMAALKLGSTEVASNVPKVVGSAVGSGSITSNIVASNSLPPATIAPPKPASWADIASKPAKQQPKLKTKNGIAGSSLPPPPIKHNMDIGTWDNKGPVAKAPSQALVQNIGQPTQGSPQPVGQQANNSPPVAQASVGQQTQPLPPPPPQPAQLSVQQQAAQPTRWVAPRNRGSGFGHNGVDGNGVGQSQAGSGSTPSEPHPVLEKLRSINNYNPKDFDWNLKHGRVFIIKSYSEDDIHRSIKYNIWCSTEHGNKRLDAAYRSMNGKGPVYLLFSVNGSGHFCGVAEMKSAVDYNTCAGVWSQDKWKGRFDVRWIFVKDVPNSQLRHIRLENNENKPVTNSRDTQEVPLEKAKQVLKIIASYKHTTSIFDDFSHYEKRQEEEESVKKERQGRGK

[2] = target: T4, endogenous YTHDF1 with 2xFlag and Cherry at the C terminus (YTHDF1^Flag-Cherry) (human (endogenous in HEK293T)) (UniProt Q9BYJ9); assay: co-IP
T4 sequence: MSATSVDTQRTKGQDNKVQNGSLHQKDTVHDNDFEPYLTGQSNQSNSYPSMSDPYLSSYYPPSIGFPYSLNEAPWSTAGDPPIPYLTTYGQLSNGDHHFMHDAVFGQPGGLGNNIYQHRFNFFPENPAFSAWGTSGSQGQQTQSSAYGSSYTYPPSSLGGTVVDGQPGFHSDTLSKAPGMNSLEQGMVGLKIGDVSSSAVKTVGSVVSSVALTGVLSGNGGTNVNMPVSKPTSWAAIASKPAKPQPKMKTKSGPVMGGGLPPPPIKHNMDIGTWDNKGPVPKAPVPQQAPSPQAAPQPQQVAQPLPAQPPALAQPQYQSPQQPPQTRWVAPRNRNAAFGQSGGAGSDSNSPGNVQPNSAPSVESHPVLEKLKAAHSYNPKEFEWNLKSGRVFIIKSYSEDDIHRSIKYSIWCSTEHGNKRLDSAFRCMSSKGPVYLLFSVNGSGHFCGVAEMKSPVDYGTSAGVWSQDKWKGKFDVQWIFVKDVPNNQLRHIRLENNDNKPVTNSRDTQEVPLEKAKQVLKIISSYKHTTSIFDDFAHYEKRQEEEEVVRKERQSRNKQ

GST-YTHDF1 (human) = target: T5, GST-YTHDF1 (human) (UniProt Q9BYJ9); assay: pull-down
T5 sequence: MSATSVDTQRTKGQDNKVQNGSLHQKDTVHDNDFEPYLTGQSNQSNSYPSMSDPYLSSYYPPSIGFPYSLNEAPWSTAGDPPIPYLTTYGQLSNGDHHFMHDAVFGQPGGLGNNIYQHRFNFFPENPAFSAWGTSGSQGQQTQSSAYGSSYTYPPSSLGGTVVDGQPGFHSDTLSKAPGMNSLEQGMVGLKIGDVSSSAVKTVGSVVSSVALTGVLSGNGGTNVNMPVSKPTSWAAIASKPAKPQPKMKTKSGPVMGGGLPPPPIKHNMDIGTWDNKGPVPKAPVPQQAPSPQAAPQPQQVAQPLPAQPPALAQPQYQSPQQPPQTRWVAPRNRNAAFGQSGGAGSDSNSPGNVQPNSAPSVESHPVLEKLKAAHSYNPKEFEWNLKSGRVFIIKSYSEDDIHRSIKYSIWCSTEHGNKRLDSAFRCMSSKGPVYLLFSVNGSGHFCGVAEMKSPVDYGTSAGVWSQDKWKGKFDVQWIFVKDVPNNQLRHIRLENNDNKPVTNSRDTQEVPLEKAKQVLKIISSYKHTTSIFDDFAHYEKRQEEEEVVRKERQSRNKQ

[3] = target: StrepII-STUB1, transfected in HEK293T cells (UniProt Q9UNE7); assay: co-IP

For Myc-STUB1 (from UniProt Q9UNE7 1-303), the binding (Flag-YTHDF1 (human)) was “binds”, the binding [1] was “binds” and the binding (Flag-YTHDF2 (human)) was “binds”.

In the case of “endogenous STUB1 (from UniProt Q9UNE7 1-303)”, the binding [2] is reported as “binds” and the binding (GST-YTHDF1 (human)) is reported as “binds”.

B1: HA-YTHDF1 (protein, UniProt Q9BYJ9 1-559)
chain: MSATSVDTQRTKGQDNKVQNGSLHQKDTVHDNDFEPYLTGQSNQSNSYPSMSDPYLSSYYPPSIGFPYSLNEAPWSTAGDPPIPYLTTYGQLSNGDHHFMHDAVFGQPGGLGNNIYQHRFNFFPENPAFSAWGTSGSQGQQTQSSAYGSSYTYPPSSLGGTVVDGQPGFHSDTLSKAPGMNSLEQGMVGLKIGDVSSSAVKTVGSVVSSVALTGVLSGNGGTNVNMPVSKPTSWAAIASKPAKPQPKMKTKSGPVMGGGLPPPPIKHNMDIGTWDNKGPVPKAPVPQQAPSPQAAPQPQQVAQPLPAQPPALAQPQYQSPQQPPQTRWVAPRNRNAAFGQSGGAGSDSNSPGNVQPNSAPSVESHPVLEKLKAAHSYNPKEFEWNLKSGRVFIIKSYSEDDIHRSIKYSIWCSTEHGNKRLDSAFRCMSSKGPVYLLFSVNGSGHFCGVAEMKSPVDYGTSAGVWSQDKWKGKFDVQWIFVKDVPNNQLRHIRLENNDNKPVTNSRDTQEVPLEKAKQVLKIISSYKHTTSIFDDFAHYEKRQEEEEVVRKERQSRNKQ
For B1, the binding [3] was “binds”.
